According to paper PMC10392025:
These are yes or no findings as the source states them, for the method shown. In cells and extracts the contact can be indirect. Here binding means that the protein was enriched with, or labelled near, the bait; the list need not be complete. Tags and fused reporters may be left off the sequences shown.

Amino acid sequences for entries named in this document (tags omitted).
UniProt Q92769: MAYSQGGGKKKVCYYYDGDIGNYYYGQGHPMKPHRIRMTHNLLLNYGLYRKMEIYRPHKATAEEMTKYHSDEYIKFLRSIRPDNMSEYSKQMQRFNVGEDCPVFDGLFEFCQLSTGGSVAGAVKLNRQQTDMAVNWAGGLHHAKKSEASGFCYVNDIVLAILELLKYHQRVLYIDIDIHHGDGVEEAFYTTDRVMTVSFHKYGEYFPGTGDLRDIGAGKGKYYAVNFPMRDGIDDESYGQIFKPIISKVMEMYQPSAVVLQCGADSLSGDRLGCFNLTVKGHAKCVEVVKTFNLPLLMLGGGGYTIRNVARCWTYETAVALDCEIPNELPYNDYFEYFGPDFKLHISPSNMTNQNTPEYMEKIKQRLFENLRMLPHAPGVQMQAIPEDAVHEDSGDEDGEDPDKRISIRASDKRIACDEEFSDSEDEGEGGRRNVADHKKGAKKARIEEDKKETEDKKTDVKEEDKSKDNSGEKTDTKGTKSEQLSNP

Target: T1, FLAG-tagged XPO7 protein (UniProt Q9UIA9)
T1 sequence: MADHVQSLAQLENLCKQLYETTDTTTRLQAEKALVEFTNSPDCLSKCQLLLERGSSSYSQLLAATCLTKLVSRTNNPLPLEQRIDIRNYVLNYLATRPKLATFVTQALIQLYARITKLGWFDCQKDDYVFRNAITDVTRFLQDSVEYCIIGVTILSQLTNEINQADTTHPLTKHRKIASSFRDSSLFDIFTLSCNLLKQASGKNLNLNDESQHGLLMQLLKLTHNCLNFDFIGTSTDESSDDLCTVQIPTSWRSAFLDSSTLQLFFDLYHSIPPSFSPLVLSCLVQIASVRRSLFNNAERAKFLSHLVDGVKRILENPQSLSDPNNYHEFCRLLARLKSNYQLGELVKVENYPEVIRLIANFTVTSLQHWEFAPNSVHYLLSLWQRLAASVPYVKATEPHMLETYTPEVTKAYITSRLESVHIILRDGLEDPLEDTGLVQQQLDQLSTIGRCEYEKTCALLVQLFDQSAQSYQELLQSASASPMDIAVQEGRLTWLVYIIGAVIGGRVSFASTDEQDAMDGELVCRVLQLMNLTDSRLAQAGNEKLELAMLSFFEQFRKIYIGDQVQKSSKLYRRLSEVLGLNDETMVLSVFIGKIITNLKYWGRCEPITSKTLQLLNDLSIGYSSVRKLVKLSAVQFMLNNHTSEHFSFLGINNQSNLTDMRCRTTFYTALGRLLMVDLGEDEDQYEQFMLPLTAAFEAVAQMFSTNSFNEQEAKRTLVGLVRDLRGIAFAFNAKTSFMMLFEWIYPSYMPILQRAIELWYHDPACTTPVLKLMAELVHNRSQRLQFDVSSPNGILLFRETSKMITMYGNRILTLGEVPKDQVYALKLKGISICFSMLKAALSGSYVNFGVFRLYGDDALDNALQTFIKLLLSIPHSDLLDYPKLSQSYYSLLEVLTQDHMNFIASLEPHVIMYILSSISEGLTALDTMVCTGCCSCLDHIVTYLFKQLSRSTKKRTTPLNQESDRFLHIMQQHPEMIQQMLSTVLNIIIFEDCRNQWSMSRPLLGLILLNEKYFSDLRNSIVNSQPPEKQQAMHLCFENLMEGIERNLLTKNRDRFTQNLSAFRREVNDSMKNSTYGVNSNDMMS
Experiment: affinity purification with mass spectrometry; FLAG-tagged XPO7 ectopically expressed in HEK293T cells; Co-IP with FLAG antibody followed by mass spectrometry (IP-MS)

- binding: binds
Substance: HDAC2 (histone deacetylase 2) in HEK293T cells (from UniProt Q92769 1-488)
